The assay addresses T1, human 5-hydroxytryptamine-2C (h-5-HT2C) receptor (Homo sapiens, UniProt P28335).
T1 construct: expressed in transfected cells; host or cells: Chinese Hamster Ovary (CHO) cells; membrane preparation
T1 sequence (P28335 33-458): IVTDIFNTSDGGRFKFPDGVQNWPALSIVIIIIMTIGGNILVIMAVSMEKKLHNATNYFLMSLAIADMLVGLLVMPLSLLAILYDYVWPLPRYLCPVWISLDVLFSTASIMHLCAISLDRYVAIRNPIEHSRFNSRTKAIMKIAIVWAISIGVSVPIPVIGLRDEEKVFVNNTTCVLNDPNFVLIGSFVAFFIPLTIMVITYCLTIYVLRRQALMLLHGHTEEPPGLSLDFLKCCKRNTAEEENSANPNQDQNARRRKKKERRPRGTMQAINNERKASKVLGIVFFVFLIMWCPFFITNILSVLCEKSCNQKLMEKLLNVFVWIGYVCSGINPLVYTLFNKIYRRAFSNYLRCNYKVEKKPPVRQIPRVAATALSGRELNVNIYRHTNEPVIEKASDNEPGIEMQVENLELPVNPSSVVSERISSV
In words: [125I]DOI binding to membranes of CHO cells expressing h-5-HT2C receptor. The settings on record: saturation binding with increasing concentrations of [125I]DOI; read-out: dissociation constant, KD.

The term Kd denotes the concentration at which binding is half-saturated.

For the compound `COc1cc(CC(C)N)c(OC)cc1I` (stereo not shown) [[^125I] DOI, reference compound], the Kd is 400 pM.

(Values after patent US7608626B2, “Substituted indolizines and derivatives as CNS agents” (Wyeth, priority 2004, dated 2009).)
